PubChem BioAssay AID743454, Peter MacCallum Cancer Centre – 2014
In all, the deposit lists about 18,000 reagents; this is a random part of them. 450 of them (2.5%) count as active. 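Single biological run; no consistent viability z cut-off exists, so the class columns, not z-scores, define the calls.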

Test: 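Genes whose loss kills vorinostat-resistant colon cancer cells under vorinostat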 (primary screen)
System: human HCT116-VR colon cancer cells, selected for vorinostat resistance
Reagent: siRNA pool against human genes, 40 nM siRNA pool
Time to read-out: vorinostat for 24 h, read-out about 72 h after transfection
Challenge: vorinostat at 2.5 µM final
Read-out: 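Two measures, CellTiter-Fluor viability and luminescent caspase 3/7 activity, each as fold change against same-plate mock wells, mean of duplicates, then screen-wide robust z-score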
Direction: viability robust z-score: higher = more viable cells than screen typical; caspase robust z-score: higher = more caspase 3/7 activity than screen typical
Hit rule: 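a knock-down is a hit when classed RV1 or RV2 for lowered viability, or CA1 or CA2 for caspase activation; those lethal without drug were dropped; hits were retested singly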

{"Gene":"SLC44A2 (GeneID 57153)","viability hit class":"no change","caspase hit class":"no change","viability robust z-score":0.14,"caspase robust z-score":-0.63,"Outcome":"inactive"}
{"Gene":"SESTD1 (GeneID 91404)","viability hit class":"no change","caspase hit class":"no change","viability robust z-score":0.55,"caspase robust z-score":-0.02,"Outcome":"inactive"}
{"Gene":"COPG1 (GeneID 22820)","viability hit class":"no change","caspase hit class":"no change","viability robust z-score":-2.71,"caspase robust z-score":0.14,"Outcome":"inactive"}
{"Gene":"ZNF319 (GeneID 57567)","viability hit class":"no change","caspase hit class":"no change","viability robust z-score":0.52,"caspase robust z-score":-0.26,"Outcome":"inactive"}
{"Gene":"MVD (GeneID 4597)","viability hit class":"no change","caspase hit class":"no change","viability robust z-score":-0.34,"caspase robust z-score":0,"Outcome":"inactive"}
{"Gene":"DIO2 (GeneID 1734)","viability hit class":"no change","caspase hit class":"no change","viability robust z-score":-0.84,"caspase robust z-score":-1.26,"Outcome":"inactive"}
{"Gene":"SIPA1L1 (GeneID 26037)","viability hit class":"no change","caspase hit class":"no change","viability robust z-score":-0.84,"caspase robust z-score":1.19,"Outcome":"inactive"}
{"Gene":"RUFY4 (GeneID 285180)","viability hit class":"no change","caspase hit class":"no change","viability robust z-score":0.73,"caspase robust z-score":-0.52,"Outcome":"inactive"}

A portion of the results above, as a working copy:
{"Gene":"SLC44A2 (GeneID 57153)","viability hit class":"no change","caspase hit class":"no change","viability robust z-score":0.14,"caspase robust z-score":-0.63,"Outcome":"inactive"}
{"Gene":"SESTD1 (GeneID 91404)","viability hit class":"no change","caspase hit class":"no change","viability robust z-score":0.55,"caspase robust z-score":-0.02,"Outcome":"inactive"}
{"Gene":"COPG1 (GeneID 22820)","viability hit class":"no change","caspase hit class":"no change","viability robust z-score":-2.71,"caspase robust z-score":0.14,"Outcome":"inactive"}

Additional reagents follow.
{"Gene":"RABEPK (GeneID 10244)","viability hit class":"no change","caspase hit class":"no change","viability robust z-score":-1.61,"caspase robust z-score":-1.07,"Outcome":"inactive"}
{"Gene":"CLCF1 (GeneID 23529)","viability hit class":"no change","caspase hit class":"no change","viability robust z-score":-2.17,"caspase robust z-score":2.58,"Outcome":"inactive"}
{"Gene":"QNG1 (GeneID 84267)","viability hit class":"no change","caspase hit class":"no change","viability robust z-score":-0.16,"caspase robust z-score":1.15,"Outcome":"inactive"}
{"Gene":"TAF1A (GeneID 9015)","viability hit class":"no change","caspase hit class":"no change","viability robust z-score":1.39,"caspase robust z-score":-0.23,"Outcome":"inactive"}
{"Gene":"ABHD12B (GeneID 145447)","viability hit class":"no change","caspase hit class":"no change","viability robust z-score":-0.26,"caspase robust z-score":0.05,"Outcome":"inactive"}
{"Gene":"CCDC97 (GeneID 90324)","viability hit class":"no change","caspase hit class":"no change","viability robust z-score":-0.02,"caspase robust z-score":4.39,"Outcome":"inactive"}
{"Gene":"C4orf33 (GeneID 132321)","viability hit class":"no change","caspase hit class":"no change","viability robust z-score":-0.95,"caspase robust z-score":-0.13,"Outcome":"inactive"}
{"Gene":"CAMSAP1 (GeneID 157922)","viability hit class":"no change","caspase hit class":"no change","viability robust z-score":1.42,"caspase robust z-score":-0.93,"Outcome":"inactive"}
{"Gene":"OR14I1 (GeneID 401994)","viability hit class":"no change","caspase hit class":"no change","viability robust z-score":-0.57,"caspase robust z-score":0.54,"Outcome":"inactive"}
{"Gene":"STK35 (GeneID 140901)","viability hit class":"no change","caspase hit class":"no change","viability robust z-score":-1.44,"caspase robust z-score":2.45,"Outcome":"inactive"}
{"Gene":"BRAF (GeneID 673)","viability hit class":"no change","caspase hit class":"no change","viability robust z-score":-1.82,"caspase robust z-score":2.4,"Outcome":"inactive"}
{"Gene":"KLF3 (GeneID 51274)","viability hit class":"no change","caspase hit class":"no change","viability robust z-score":-0.62,"caspase robust z-score":1.86,"Outcome":"inactive"}
{"Gene":"TRIM24 (GeneID 8805)","viability hit class":"no change","caspase hit class":"CA2 (caspase activation)","viability robust z-score":-0.8,"caspase robust z-score":8.76,"Outcome":"active"}
